PubChem BioAssay AID1259331 – Drosophila RNAi Screening Center | 2017
In all, the deposit lists about 3,100 reagents; below is a random part of them. In the full data, 126 (4.1%) are marked active. 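Calls are per reagent; zinc was so toxic that few knock-downs lowered ATP further, so most hits raise ATP.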 The raw values are shown without normalisation. A number with no mark means an inactive call. Reagent sequences are not shown. Not stated in the record: the amount of reagent.

Screen: 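Knock-downs that alter ATP level after a high zinc chloride dose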 (primary screen)
System: Drosophila S2R+ cells
Reagent: long dsRNA against Drosophila genes
Time to read-out: 5 days (4 days knock-down, then 1 day zinc)
Treatment: zinc chloride at 15 mM final level for 1 day
Read-out: 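Luminescent ATP assay standing in for viability; Z score is the mean over three replicate plates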
Reading the numbers: mean Z score: higher = more ATP than other wells, better survival under zinc; ATP luminescence: higher = more ATP, more viable cells
Active means: 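a reagent is called a hit when its Z score is above 1.5 or below -1.5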
Calls: active = hit, ATP up or down; inactive = not a hit

With scb [DRSC05542], how do the results read?
mean Z score: -0.147; ATP luminescence, replicate 1: 39936; ATP luminescence, replicate 2: 44548

How did the screen score scb [DRSC07678]?
mean Z score: 0.0293; ATP luminescence, replicate 1: 69498; ATP luminescence, replicate 2: 67269

What is on record for Osi18 [DRSC12181]?
mean Z score: -0.104; ATP luminescence, replicate 1: 75090; ATP luminescence, replicate 2: 59380

For na [DRSC19639], what was measured?
mean Z score: 1.28; ATP luminescence, replicate 1: 87766; ATP luminescence, replicate 2: 86822

With na [DRSC29828], how do the results read?
mean Z score: -0.0293; ATP luminescence, replicate 1: 49865; ATP luminescence, replicate 2: 44617

With CG6836 [DRSC10722], how do the results read?
mean Z score: -0.529; ATP luminescence, replicate 1: 27285; ATP luminescence, replicate 2: 29050

What did the screen give for CG6836 [DRSC26906]?
mean Z score: -0.103; ATP luminescence, replicate 1: 61232; ATP luminescence, replicate 2: 53618

For CG10761 [DRSC17753], what does the deposit list?
mean Z score: 0.128; ATP luminescence, replicate 1: 69070; ATP luminescence, replicate 2: 67269

What did the screen give for CG10761 [DRSC27665]?
mean Z score: -0.0348; ATP luminescence, replicate 1: 56083; ATP luminescence, replicate 2: 58265

What is on record for ppk10 [DRSC01123]?
mean Z score: 0.0917; ATP luminescence, replicate 1: 42714; ATP luminescence, replicate 2: 46177

With stj [DRSC06124], how do the results read?
mean Z score: 0.136; ATP luminescence, replicate 1: 35993; ATP luminescence, replicate 2: 32547

How did the screen score gny [DRSC02810]?
mean Z score: -0.448; ATP luminescence, replicate 1: 48012; ATP luminescence, replicate 2: 51904

For gny [DRSC39750], what was measured?
mean Z score: 0.0263; ATP luminescence, replicate 1: 62244; ATP luminescence, replicate 2: 56791

What is on record for Snmp1 [DRSC16168]?
mean Z score: 0.221; ATP luminescence, replicate 1: 45320; ATP luminescence, replicate 2: 57031

What did the screen give for Octbeta2R [DRSC15350]?
mean Z score: 0.103; ATP luminescence, replicate 1: 43537; ATP luminescence, replicate 2: 44669

For Octbeta2R [DRSC16165], how do the results read?
mean Z score: -0.273; ATP luminescence, replicate 1: 36987; ATP luminescence, replicate 2: 58594

What did the screen give for Octbeta2R [DRSC25380]?
mean Z score: 2.61 (active); ATP luminescence, replicate 1: 96584; ATP luminescence, replicate 2: 1.07e5

With Abcd3 [DRSC19488], what was measured?
mean Z score: -0.219; ATP luminescence, replicate 1: 40365; ATP luminescence, replicate 2: 42902

For Abcd3 [DRSC29341], what does the deposit list?
mean Z score: 0.33; ATP luminescence, replicate 1: 66857; ATP luminescence, replicate 2: 66103

With nes [DRSC11375], what does the deposit list?
mean Z score: -0.697; ATP luminescence, replicate 1: 62278; ATP luminescence, replicate 2: 49501

With nes [DRSC39655], what was measured?
mean Z score: -0.118; ATP luminescence, replicate 1: 63873; ATP luminescence, replicate 2: 62433

How did the screen score CG8008 [DRSC07053]?
mean Z score: 0.0785; ATP luminescence, replicate 1: 31759; ATP luminescence, replicate 2: 33010

For CG8008 [DRSC39472], how do the results read?
mean Z score: -0.108; ATP luminescence, replicate 1: 45508; ATP luminescence, replicate 2: 55419

Which result is listed for Ir47a [DRSC06215]?
mean Z score: 0.29; ATP luminescence, replicate 1: 81882; ATP luminescence, replicate 2: 77285
